In data set [1] the target is T1, DegU~P-His6 (Bacillus subtilis) (UniProt P13800).
T1 sequence (looked up, limits assumed): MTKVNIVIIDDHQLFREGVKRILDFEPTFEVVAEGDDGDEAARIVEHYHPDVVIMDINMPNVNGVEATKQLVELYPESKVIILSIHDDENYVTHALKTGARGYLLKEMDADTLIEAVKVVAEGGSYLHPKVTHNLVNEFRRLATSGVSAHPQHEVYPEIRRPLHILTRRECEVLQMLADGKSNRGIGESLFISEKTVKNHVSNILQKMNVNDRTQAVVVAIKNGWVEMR
Kind of data set: EMSA. The conditions noted are these: DegU phosphorylated by DegS, 1 ng 32P-labelled DNA per lane, recombinant protein, protein details: His6, label: 32P (T4 PNK), probe letters rebuilt from the primers and the genome.

Data set [2] has as its target T2, DegU32(Hy)~P H12L (Bacillus subtilis) (UniProt P13800).
T2 sequence (looked up, limits assumed): T1 sequence (looked up, limits assumed) with H12L
Kind of data set: EMSA. As to conditions: phosphorylated; 1 ng 32P-labelled DNA per lane; recombinant protein; label: 32P (T4 PNK); probe letters rebuilt from the primers and the genome.

Residue numbers refer to the chain shown, from its start. The exact form of at least one protein or probe is not confirmed. Negatives hold for the conditions tested. Tags and fusion partners may be left off the protein sequences shown.

As for “GCCAGAATTCGGATCCATTCATAGCCTTCAGCCTTCCCGCGGCTGGCTTCCCGCGCCCCTTTCTGTTAATGATTGGATTATAAAAGAAAACGTTATTATTTAAAAATTGCAAAATAAGCCAATAAGTTCTCTTTAGAGAACAAAATCATGATTTTCCTCTAATTTACTGCACTTCCCTTATTATTTTAAATTTTATAAAGAACGAAAAATTCCTTATAATGAACGAAATAACGACAGGAATAGAGGAGAATTTCATATTATGATTGGAAGAATTATCCGTTTGTACCGTAAAAGAAAAGGCTATTCTATTAATCAGCTGGCTGTTGAGTCAGGCGTATCCAAATCCTATTTAAGCAAGATTGAAAGAGGCGTTCACACGAATCCGTCCGTTCAATTTTTAAAAAAAGTTTCTGCCACACTGGAAGTTGAATTAACAGAATTATTTGACGCAGAAACAATGATGTATGAAAAAATCAGCGGCGGTGAAGAAGAATGGCGCGTACATTTAGTGCAAGCCGTACAGAATTCTCCA (double strand) [epsA promoter region]”, the binding result in data set [1] and in data set [2] was “no binding” in each case.

As for “GGTAAAGCCTATGAATTCTCCATTTTCTTCTGCTATCAAAATAACAGACTCGTGATTTTCCAAACGAGCTTTCAAAAAAGCCTCTGCCCCTTGCAAATCGGATGCCTGTCTATAAAATTCCCGATATTGGTTAAACAGCGGCGCAATGGCGGCCGCATCTGATGTCTTTGCTTGGCGAATGTTCATCTTATTTCTTCCTCCCTCTCAATAATTTTTTCATTCTATCCCTTTTCTGTAAAGTTTATTTTTCAGAATACTTTTATCATCATGCTTTGAAAAAATATCACGATAATATCCATTGTTCTCACGGAAGCACACGCAGGTCATTTGAACGAATTTTTTCGACAGGAATTTGCCGGGACTCAGGAGCATTTAACCTAAAAAAGCATGACATTTCAGCATAATGAACATTTACTCATGTCTATTTTCGTTCTTTTCTGTATGAAAATAGTTATTTCGAGTCTCTACGGAAATAGCGAGAGATGATATACCTAAATAGAGATAAAATCATCTCAAAAAAATGGGTCTACTAAAATATTATTCCATCTATTACAATAAATTCACAGAATAGTCTTTTAAGTAAGTCTACTCTGAATTTTTTTAAAAGGAGAGGGTAAAGAGTGAGAAGCAAAAAATTGTGGATCAAGCTTAGAC (double strand) [aprE promoter region]”, the binding result in data set [1] (positive control) is recorded as “binds”.

As for “TGGCGAATTCATAGACAAATCACACATTGTTTGATCATCATGCTGTCACCCTTTCTTTGTTTATTATTACCAAATAATAATGGGATATGCATTTAAATTCTCACATAACAATCCCAAAAATTTCTAAAAAATTGAAAAAATGAGCAATACTGAGCAAGACTTTGTAATATGATGAAAACATTCTTTTAAACGAACAAAATGAGCGATTTCGGTGTTTTTAAATCTATAAATCGTTGATTATACTCTATTTGTGAAGTTCTTTAAAGAGAACGATTGTCATATCAAGTTACAGTGTTTTACAGGAGGTAAGATGGATCCGAATTCTGGC (double strand) [tapA promoter region]”, the binding result in data set [1] and in data set [2] was “no binding” in each case.

The values above are taken from paper PMC3911142.
